No constants are given. Whether binding was seen depends on the method and setting. In cells and extracts the contact can be indirect. These calls come from enrichment with a bait or labelling near it, and not all partners need be listed.

Chains of the proteins cited; added tags and fusions are not shown.
UniProt P52480: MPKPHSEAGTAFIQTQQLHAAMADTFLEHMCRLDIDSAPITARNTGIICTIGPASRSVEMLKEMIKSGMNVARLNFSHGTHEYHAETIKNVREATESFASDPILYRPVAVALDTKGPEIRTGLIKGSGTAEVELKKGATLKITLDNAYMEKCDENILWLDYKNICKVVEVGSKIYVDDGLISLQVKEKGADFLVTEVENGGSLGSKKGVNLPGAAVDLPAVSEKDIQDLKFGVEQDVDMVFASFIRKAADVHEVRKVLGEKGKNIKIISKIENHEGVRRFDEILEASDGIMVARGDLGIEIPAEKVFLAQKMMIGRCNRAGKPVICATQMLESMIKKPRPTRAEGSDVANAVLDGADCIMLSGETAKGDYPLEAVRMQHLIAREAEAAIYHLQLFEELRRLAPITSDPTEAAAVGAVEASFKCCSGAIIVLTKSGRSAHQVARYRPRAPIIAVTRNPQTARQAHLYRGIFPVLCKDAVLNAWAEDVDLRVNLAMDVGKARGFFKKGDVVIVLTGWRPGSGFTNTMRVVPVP

The values below come from article PMC9498520.

Assay [1] concerns the target Enolase-1 (ENO1) (mouse (endogenous in NMuMG)) (UniProt P17182). Kind of assay: affinity purification with mass spectrometry; co-immunoprecipitation with an antibody against ENO-1 from UV-crosslinked extracts of control and Lnc-Nr6a1-depleted NMuMG cells; precipitated proteins analysed by quantitative mass spectrometry (spectral counting); markedly lower amounts in Lnc-Nr6a1-depleted cells.

The target in assay [2] is T1, Enolase-1 (ENO1) (mouse (endogenous in NMuMG)), P17182.
T1 chain: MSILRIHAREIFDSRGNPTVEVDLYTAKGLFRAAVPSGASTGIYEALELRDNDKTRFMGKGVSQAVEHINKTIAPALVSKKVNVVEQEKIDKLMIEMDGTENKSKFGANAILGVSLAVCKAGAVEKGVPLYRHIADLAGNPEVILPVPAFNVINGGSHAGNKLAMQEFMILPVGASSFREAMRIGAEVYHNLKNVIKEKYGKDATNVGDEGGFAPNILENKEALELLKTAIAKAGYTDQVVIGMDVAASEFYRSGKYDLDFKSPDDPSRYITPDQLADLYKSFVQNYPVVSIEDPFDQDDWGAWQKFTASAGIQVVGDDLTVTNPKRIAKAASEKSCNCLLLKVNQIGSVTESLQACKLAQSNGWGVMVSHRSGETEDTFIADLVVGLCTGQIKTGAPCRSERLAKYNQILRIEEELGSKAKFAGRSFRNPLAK
The description is as above. The following applies: remark: other sources report otherwise.

Turning to “Pyruvate kinase (PKM) (from UniProt P52480 1-531) (enzyme)”, the binding entry in assay [1] is given as “binds”.

B1: Phosphoglycerate mutase (PGAM1) (enzyme, UniProt Q9DBJ1 1-254)
chain: MAAYKLVLIRHGESAWNLENRFSGWYDADLSPAGHEEAKRGGQALRDAGYEFDICFTSVQKRAIRTLWTVLDAIDQMWLPVVRTWRLNERHYGGLTGLNKAETAAKHGEAQVKIWRRSYDVPPPPMEPDHPFYSNISKDRRYADLTEDQLPSCESLKDTIARALPFWNEEIVPQIKEGKRVLIAAHGNSLRGIVKHLEGLSEEAIMELNLPTGIPIVYELDKNLKPIKPMQFLGDEETVRKAMEAVAAQGKVKK
Consider B1, for which the binding result in assay [1] is given as “binds”.

B2: Phosphoglycerate kinase (PGK1), P09411 1-417 (enzyme)
chain: MSLSNKLTLDKLDVKGKRVVMRVDFNVPMKNNQITNNQRIKAAVPSIKFCLDNGAKSVVLMSHLGRPDGVPMPDKYSLEPVAAELKSLLGKDVLFLKDCVGPEVENACANPAAGTVILLENLRFHVEEEGKGKDASGNKVKAEPAKIDAFRASLSKLGDVYVNDAFGTAHRAHSSMVGVNLPQKAGGFLMKKELNYFAKALESPERPFLAILGGAKVADKIQLINNMLDKVNEMIIGGGMAFTFLKVLNNMEIGTSLYDEEGAKIVKDLMSKAEKNGVKITLPVDFVTADKFDENAKTGQATVASGIPAGWMGLDCGTESSKKYAEAVGRAKQIVWNGPVGVFEWEAFARGTKSLMDEVVKATSRGCITIIGGGDTATCCAKWNTEDKVSHVSTGGGASLELLEGKVLPGVDALSNV
In the case of B2, the binding entry in assay [2] is reported as “binds”.
